Consider one molecule from publication PMC11649789.

Protein sequences, listed by entry. Tags and fused reporters are not part of them.
UniProt P17931: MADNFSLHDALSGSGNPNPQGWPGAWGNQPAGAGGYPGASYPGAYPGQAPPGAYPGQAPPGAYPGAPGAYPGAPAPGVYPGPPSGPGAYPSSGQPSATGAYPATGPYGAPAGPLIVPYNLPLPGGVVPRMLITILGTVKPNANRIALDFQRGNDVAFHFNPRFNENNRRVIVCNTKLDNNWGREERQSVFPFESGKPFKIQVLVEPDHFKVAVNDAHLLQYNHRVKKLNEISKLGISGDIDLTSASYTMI
UniProt P05198: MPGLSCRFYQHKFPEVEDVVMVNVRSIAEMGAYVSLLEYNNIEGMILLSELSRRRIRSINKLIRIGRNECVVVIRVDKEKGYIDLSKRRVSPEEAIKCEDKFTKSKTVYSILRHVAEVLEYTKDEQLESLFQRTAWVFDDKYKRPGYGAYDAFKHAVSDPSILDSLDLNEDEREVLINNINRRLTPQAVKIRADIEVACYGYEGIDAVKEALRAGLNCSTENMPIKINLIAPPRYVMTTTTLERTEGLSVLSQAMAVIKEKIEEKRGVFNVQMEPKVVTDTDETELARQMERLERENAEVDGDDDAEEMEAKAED

Results are given in words; binding and its absence hold for the method and conditions named. In cells and extracts the contact can be indirect. Some results given as binding are weak or reduced against the parent protein; the word gives no strength.

The target in one experiment is FLAG-Gal3 (UniProt P17931). Nature of the experiment: co-IP; HEK293T expressing FLAG-Gal3; untreated or 1 mM LLOMe 30 min; NP-40 lysate, anti-FLAG antibody, Dynabeads; immunoblot (Fig. 6C).
The next experiment concerns the target FLAG-eIF2α (UniProt P05198). Nature of the experiment: co-IP; HEK293T expressing FLAG or FLAG-eIF2α, untreated or 1 mM LLOMe 30 min; NP-40 lysate, anti-FLAG antibody, Dynabeads; immunoblot (Fig. 3D). Background: In western blotting, separated proteins are transferred to a membrane and probed.

B1: PACT, protein activator of PKR, endogenous (protein, UniProt O75569 1-313)
chain: MSQSRHRAEAPPLEREDSGTFSLGKMITAKPGKTPIQVLHEYGMKTKNIPVYECERSDVQIHVPTFTFRVTVGDITCTGEGTSKKLAKHRAAEAAINILKANASICFAVPDPLMPDPSKQPKNQLNPIGSLQELAIHHGWRLPEYTLSQEGGPAHKREYTTICRLESFMETGKGASKKQAKRNAAEKFLAKFSNISPENHISLTNVVGHSLGCTWHSLRNSPGEKINLLKRSLLSIPNTDYIQLLSEIAKEQGFNITYLDIDELSANGQYQCLAELSTSPITVCHGSGISCGNAQSDAAHNALQYLKIIAERK
With B1, the binding result with FLAG-Gal3 and in the experiment with FLAG-eIF2α was “binds” in each case.
